The target in test [1] is LPAR1 (on CHO cells; species not stated) (UniProt Q92633). Description: hybridoma isolation; assay not restated (Example 1.2 describes FACS on CHO cells expressing LPAR1).
The target is the same in test [2]. Description: hybridoma supernatant, FACS on CHO cells transiently expressing LPAR1 against CHO cells with an irrelevant GPCR (Example 1.2).

Protein sequences, listed by entry. Tags and fused reporters are not part of them.
UniProt Q92633: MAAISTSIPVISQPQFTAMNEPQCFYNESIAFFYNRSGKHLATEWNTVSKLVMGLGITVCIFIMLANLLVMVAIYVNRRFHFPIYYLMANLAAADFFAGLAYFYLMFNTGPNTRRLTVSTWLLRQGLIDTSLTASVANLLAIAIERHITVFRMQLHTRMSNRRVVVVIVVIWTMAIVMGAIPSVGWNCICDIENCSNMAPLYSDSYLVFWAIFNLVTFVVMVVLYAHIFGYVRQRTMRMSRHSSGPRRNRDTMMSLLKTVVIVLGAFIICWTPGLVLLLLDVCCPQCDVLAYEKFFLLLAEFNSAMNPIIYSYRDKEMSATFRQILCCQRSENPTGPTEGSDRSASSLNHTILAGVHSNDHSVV

Results are given in words; binding and its absence hold for the method and conditions named. Some binding calls cover weakened binding; strength is not graded here.

B1: 63D8 (antibody, IgG1, V domains shown)
VH: EVKLLESGGGLVQPGGSLKLSCTASGFDFSRYWMSWVRQAPGKGLEWIGEINPSRSAINYSPSLKDKFIISRDNAKNTLYLQMSKVRSEDTALYYCARQGQRLRYGMDYWGQGTSVTVSS
VL: DIVMTQSPNFMSTSVGDRVSVTCRASQDVRTAVAWYQQKPGRSPKLLIYWTSTRHTGVPDRFTGSGSGTDYTLTISSVQAADLALYYCQQHYGTPLTFGAGTNLELK
notes: First found as a mouse hybridoma antibody
For the molecule B1, the binding entry in test [1] is “binds”.

B2: Antibody 1 (antibody, IgG1, V domains shown)
VH: QVQLQQSGAELARPGASVKLSCKASGYTFTSSGISWVKQRTGQGLEWIGEILPRSGYTNYNEKFKGKASLTADKSSSTAYMELRSLTSEDSAVYFCARDFGSSRYAMDYWSQGTSVTVSS
VL: SIVMTQTPKLLPVSAGDRVTMTCKASQSVRYNVAWYQQKPGQSPKLLIYYASNRYTGVPDRFTGSGSGTDFTFTVRSVQVEDLAVYFCQQHYNSPLTFGSGTKLELR
Consider B2, for which the binding result in test [2] is given as “binds”.

The values above are taken from US20230181671A1 (published 2023).
